The values below are quoted from earlier work in US7687497B2, “C10-substituted camptothecin analogs” (priority 2007, dated 2010).

The conditions of the series: closed E-ring lactone form; cited from earlier work.

In the case of `CC[C@@]1(O)C(=O)OCc2c1cc1n(c2=O)Cc2cc3ccccc3nc2-1` [CPT, (S)-4-Ethyl-4-hydroxy-1H-pyrano[3′,4′:6,7]indolizino[1,2-b]quinoline-3,14(4H,12H)-dione], the solubility in water result is recorded as “approximately 0.1 μg of drug dissolving in 1 mL of water”.
